# Source: PubChem BioAssay AID687028 (Broad Institute, 2013)
# The entries are a selection whose mix differs from that of the whole data set. Results with a measured potency or affinity are listed apart. Calls of active or inactive are those of the source. No rule for the calls is given here.
# Test: viability loss in A549 cells – cell-based, plate reader, cherry-pick samples, cytotoxicity control, dose response (AID 687028);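 also: cells incubated with compound for three days before reading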
# Conditions: at 19.5 µM (top of the series)
row,Compound,"activity change, negative = toxicity"
1,CCCCCCCCc1ccc(O)cc1,inactive: 3.26%
